# Measurements from PubChem BioAssay AID652054 (National Center for Advancing Translational Sciences (NCATS), 2013).
# By UniProt entry, the sequences of proteins in these tests, tags left out.
# UniProt P35462, whole entry, looked up: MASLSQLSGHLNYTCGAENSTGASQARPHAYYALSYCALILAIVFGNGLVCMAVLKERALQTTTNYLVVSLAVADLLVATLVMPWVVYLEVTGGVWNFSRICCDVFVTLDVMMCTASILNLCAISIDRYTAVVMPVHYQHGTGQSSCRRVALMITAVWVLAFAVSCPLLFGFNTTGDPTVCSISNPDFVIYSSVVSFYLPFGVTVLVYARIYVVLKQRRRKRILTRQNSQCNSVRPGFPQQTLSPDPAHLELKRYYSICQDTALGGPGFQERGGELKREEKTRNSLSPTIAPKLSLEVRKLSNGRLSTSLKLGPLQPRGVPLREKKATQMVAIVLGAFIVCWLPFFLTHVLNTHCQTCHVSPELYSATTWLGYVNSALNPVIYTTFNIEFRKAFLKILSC
# In all, about 360,000 compounds went through this assay and about 9,100 (2.5%) were called active. The inconclusive results got no clear call from the source; some entries with a clear call stand among them for comparison. Rule as the data show it: active = max response below about -50%; inconclusive = no clear call, values can overlap the other calls; inactive = above that.
# Target: D(3) dopamine receptor (Homo sapiens) (UniProt P35462)
# Experiment: qHTS of D3 Dopamine Receptor Antagonist: qHTS
# Conditions: D3R cells, DiscoveRx beta-arrestin luminescence, antagonist mode; hits give low values
# Outline: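 Cells plated overnight at 1500 cells/well, then exposed to library compounds with dopamine controls for 90 minutes at 37 degrees C. DiscoveRx reagent added for 30–60 minutes at room temperature; luminescence read, quantitative HTS format.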
# % is scaled to controls: 0 for no effect and ±100 for the full control effect.
row,SMILES,"max response, negative = inhibition"
1,CCOC(=O)N1CCN(C(=O)c2cc(S(=O)(=O)N3CCc4ccccc43)ccc2OC)CC1,inconclusive: -31.6%
2,CCN(CC)CCn1c(NCc2cccc(OC)c2)nc2ccccc21,active: -85.9%
3,Cc1cccc(N(CC(=O)NC2CCCC2)C(=O)c2csnn2)c1C,inconclusive: -42.5%
4,O=C(/C(=C/c1ccc(Cl)cc1)c1nc2ccccc2[nH]1)c1cccs1,active: -65.2%
5,Cc1ccc(S(=O)(=O)CC(c2ccccc2)N2CCOCC2)cc1 (centres undefined),inconclusive: -35.9%
6,Cc1cc(C)n2[nH]c(=O)c(N=Nc3ccc(S(N)(=O)=O)cc3)c2n1,inconclusive: -41.4%
7,CCCSC(=S)c1c(C)[nH]n(-c2ccccc2)c1=O,inactive: 2.92%
8,CCC(c1nnc(SCC(=O)Nc2ccc(NC(C)=O)cc2)n1Cc1ccccc1)N(C)C (centres undefined),inactive: 3.52%
9,CCc1nc2nc(C)c(NS(=O)(=O)c3ccc(Cl)cc3)c(=O)n2[nH]1,inactive: -21.9%
10,C=CC[C@@H](CC(=O)N[C@@H](CO)Cc1ccccc1)C(=O)N[C@H](COC(=O)[C@@H](CC=C)Cc1ccc(F)cc1)C(C)(C)C,inactive: 2.01%
11,CC1CCCN(C(=O)Cn2c(=O)oc3cc(S(=O)(=O)N4CCCCC4C)ccc32)C1 (centres undefined),inconclusive: -40.2%
12,O=C(CCSCCc1ccccn1)Nc1nccs1,inconclusive: -32.6%
13,COC(=O)[C@@]12C[C@@H](CC(=O)NCc3ccc(C)o3)C(=O)N(CCc3ccc(OC)c(OC)c3)C1=CCC(C)(C)C2,inactive: 6.94%
14,CC(=O)c1cccc(CN2CCN(Cc3ccc(F)cc3)C(CCO)C2)c1 (centres undefined),inconclusive: -36%
15,CCN(CC)CCCNC(=O)CC1Sc2ccccc2NC1=O (centres undefined),active: -50.6%
16,O=C(CC1NCCNC1=O)Nc1cccc([N+](=O)[O-])c1 (centres undefined),inconclusive: -38.9%
17,CCN(CC)S(=O)(=O)c1ccc(NC(=O)CNC2CCCCC2)cc1,inconclusive: -33.8%
18,CCOC(=O)C1=C(O)/C(=C/c2cn(CC(=O)NCC3CCCO3)c3ccccc23)SC1=Nc1ccc(C)cc1 (centres undefined),inactive: 16.9%
19,COCCCn1c(-c2ccc(Cl)cc2)n[nH]c1=S,inconclusive: -32.6%
20,O=C(Nc1cccc(Cl)c1Cl)c1csc([C@@H]2O[C@H](CO)[C@H](O)[C@H](O)[C@H]2O)n1,inconclusive: -30.3%
21,CC(=O)c1c(C(C)=O)c(C)n(-c2nc(-c3ccc(Br)cc3)c(C)s2)c1C,inconclusive: -44.9%
22,Cc1ccc(S(=O)(=O)N2[C@@H](c3ccc(Cl)cc3)C(C(=O)O)=CC[C@H]2c2ccc(Cl)c(Cl)c2)cc1,inconclusive: -31.6%

# In the list so far, these have two or more sulfur atoms.
row,SMILES,"max response, negative = inhibition"
7,CCCSC(=S)c1c(C)[nH]n(-c2ccccc2)c1=O,inactive: 2.92%
12,O=C(CCSCCc1ccccn1)Nc1nccs1,inconclusive: -32.6%

# The results go on:

row,SMILES,"max response, negative = inhibition"
1,Cc1ccc(OCc2ccc([N+](=O)[O-])cc2)c([N+](=O)[O-])n1,inactive: -18.3%
2,CC1(C)Cc2c(c(N3CCOCC3)nc3sc4c(NCc5ccco5)nnnc4c23)CS1,inactive: 61.2%
3,S=c1nc2c(n[nH]1)c1ccccc1n2CCc1ccccc1,inconclusive: -35.3%
4,Cc1ccc(NC2=NCC(=O)N2Cc2ccccc2)c(C)c1,inactive: 82.5%
5,Fc1cc(F)c2nc(N3CCCCC3)sc2c1,inactive: 30.1%
6,Cc1nnc(NC(=O)CSc2nnc3scc(-c4ccc(C)c(C)c4)n23)s1,inactive: 11.3%
7,COc1ccc(C(C)(O)c2nc(-c3cccc(O)c3)cs2)cc1 (centres undefined),inactive: 0.476%
8,COc1ccc(NC(=O)c2c(NC(=O)CCC(=O)O)sc3c2CCCCC3)cc1,inactive: 1.42%
9,COc1cccc(N2CCN(Cc3ncc(-c4ccccc4)o3)CC2)c1,active: -56.2%
10,CC(C)(C)C(=O)CN1CCN(C2c3ccccc3-c3ccccc32)CC1,inactive: 16.4%
11,CCOC(=O)c1cnc(-n2nc(C)cc2C)nc1NC1CCCCC1,inconclusive: -34.5%
12,CC(C)(C)NC(=O)c1ccccc1NC(=O)c1ccc2c(c1)OCO2,inconclusive: -32.7%
13,O=C(CSc1nc2ccccc2[nH]1)c1ccccc1F,inactive: -13.7%
14,CN(CC(=O)N1CCN(Cc2ccccc2)CC1)S(=O)(=O)c1ccc(Br)cc1,inconclusive: -48.3%
15,COc1ccc(-n2nnc3c(=O)n(CC(=O)N4CCCCC4)cnc32)cc1,inconclusive: -35.4%
16,O=C1c2cc(O)cc(O)c2C(=O)c2c1cc(O)c([C@@H](CO)CCO)c2O,active: -53.1%
17,CCOc1ccc(C(=O)OC(C)CN2CCCCC2)cc1 (centres undefined),inconclusive: -36.8%
18,CCOC(=O)c1c(NC(=O)CN(C)C)sc(C(=O)N(CC)CC)c1C,inconclusive: -41.6%
19,CCOC(=O)c1cc(C#N)c(N2CCCNCC2)nc1C(F)(F)F,inactive: -11.2%
20,O=C(CSc1nc(-c2ccccc2)c(-c2ccccc2)[nH]1)NCCN1C(=O)CSC1=O,inactive: -5.8%
21,Clc1ccccc1Cn1c(/C=C/c2ccco2)nc2ccccc21,inactive: -27.4%
22,O=C(Nc1ccccc1)C1=C(c2ccccc2)S(=O)(=O)CCS1(=O)=O,active: -105%
